Results are given in words; binding and its absence hold for the method and conditions named. Binding seen in cells or lysates may run through a third protein. Some results given as binding are weak or reduced against the parent protein; the word gives no strength. For part of these data: Sequences can lack the tags named with a protein. Blank lines part the entries; values can stand above or below the molecule they belong to.
Columns and labels:
[1] = target: endogenous HRD1 protein (human (endogenous in H460)) (UniProt Q86TM6); assay: co-IP; endogenous HRD1 precipitated with anti-HRD1 antibody in H460 control, TUSC3 KO or TUSC3-reconstituted TUSC3 KO cells; Western blot for substrates; interactions enhanced in TUSC3 KO, decreased on TUSC3 overexpression
[2] = target: HRD1-Flag (Synoviolin) (UniProt Q86TM6); assay: co-IP; pcDNA-TUSC3-V5-His or its mutants (TUSC3-CCSS, Del-TUSC3) co-transfected with pCMV6-HRD1-Flag in HEK293 cells; IP and inverse IP with Western blot

The chains behind the UniProt entries cited, without tags or fusion partners. Residues count along the entry.
UniProt Q86TM6: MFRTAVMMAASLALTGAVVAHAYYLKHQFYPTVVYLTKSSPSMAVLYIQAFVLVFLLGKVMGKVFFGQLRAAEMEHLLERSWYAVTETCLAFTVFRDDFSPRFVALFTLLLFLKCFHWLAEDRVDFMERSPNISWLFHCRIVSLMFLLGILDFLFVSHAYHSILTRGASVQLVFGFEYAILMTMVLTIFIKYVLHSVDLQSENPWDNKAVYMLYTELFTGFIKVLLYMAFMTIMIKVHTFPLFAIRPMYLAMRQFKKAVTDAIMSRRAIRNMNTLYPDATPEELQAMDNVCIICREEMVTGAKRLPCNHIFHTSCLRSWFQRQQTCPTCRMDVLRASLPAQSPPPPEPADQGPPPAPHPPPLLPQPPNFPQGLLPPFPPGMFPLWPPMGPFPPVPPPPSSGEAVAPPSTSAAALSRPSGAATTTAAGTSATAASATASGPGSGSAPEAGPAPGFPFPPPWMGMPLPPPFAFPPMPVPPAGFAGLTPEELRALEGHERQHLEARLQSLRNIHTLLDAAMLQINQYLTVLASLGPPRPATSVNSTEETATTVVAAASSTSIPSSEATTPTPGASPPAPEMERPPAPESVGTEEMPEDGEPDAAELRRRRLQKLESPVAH
UniProt P18850: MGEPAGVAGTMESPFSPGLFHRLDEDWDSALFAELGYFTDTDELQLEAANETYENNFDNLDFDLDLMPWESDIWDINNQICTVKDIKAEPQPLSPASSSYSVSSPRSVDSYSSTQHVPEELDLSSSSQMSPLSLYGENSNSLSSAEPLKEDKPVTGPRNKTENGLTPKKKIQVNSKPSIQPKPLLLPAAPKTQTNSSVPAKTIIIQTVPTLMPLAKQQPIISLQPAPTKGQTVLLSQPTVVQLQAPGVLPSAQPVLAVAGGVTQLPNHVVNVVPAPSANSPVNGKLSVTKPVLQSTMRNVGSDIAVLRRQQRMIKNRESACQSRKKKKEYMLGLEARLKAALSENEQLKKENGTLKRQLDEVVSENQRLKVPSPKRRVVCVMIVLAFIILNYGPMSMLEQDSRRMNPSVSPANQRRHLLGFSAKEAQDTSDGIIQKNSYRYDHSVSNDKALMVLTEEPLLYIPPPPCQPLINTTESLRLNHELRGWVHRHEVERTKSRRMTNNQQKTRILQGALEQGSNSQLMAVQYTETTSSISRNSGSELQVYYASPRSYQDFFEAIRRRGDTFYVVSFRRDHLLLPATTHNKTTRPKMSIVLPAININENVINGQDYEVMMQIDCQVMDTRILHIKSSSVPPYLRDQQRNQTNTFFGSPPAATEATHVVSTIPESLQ
UniProt O75460, residues 19-977: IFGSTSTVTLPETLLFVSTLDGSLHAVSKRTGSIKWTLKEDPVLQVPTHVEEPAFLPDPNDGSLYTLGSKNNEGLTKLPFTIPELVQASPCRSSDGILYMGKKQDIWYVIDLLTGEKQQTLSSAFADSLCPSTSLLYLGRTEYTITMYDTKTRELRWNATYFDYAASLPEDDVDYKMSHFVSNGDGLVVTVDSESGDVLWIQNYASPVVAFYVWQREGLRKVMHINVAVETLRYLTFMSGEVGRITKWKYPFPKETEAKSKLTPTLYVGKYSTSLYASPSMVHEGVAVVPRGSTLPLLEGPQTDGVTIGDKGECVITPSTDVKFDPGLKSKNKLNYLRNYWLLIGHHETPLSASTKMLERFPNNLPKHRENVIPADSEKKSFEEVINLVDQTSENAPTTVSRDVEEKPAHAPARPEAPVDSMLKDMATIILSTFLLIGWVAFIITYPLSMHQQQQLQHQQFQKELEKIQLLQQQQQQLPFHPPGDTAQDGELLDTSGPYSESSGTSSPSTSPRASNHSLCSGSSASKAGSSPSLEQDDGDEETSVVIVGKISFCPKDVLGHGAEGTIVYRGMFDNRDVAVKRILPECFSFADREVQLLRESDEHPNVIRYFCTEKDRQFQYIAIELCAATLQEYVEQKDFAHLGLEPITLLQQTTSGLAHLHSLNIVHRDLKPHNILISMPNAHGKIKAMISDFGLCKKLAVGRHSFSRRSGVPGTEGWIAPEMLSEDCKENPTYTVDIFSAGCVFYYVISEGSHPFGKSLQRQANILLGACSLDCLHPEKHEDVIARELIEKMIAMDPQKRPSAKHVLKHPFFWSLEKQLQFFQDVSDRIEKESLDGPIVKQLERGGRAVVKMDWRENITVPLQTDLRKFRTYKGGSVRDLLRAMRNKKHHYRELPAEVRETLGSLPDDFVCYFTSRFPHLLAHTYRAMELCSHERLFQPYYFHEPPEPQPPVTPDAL

binding [1]: no binding
Molecule: ATF6α (endogenous, H460) (from UniProt P18850 1-670)

binding [1]: binds
Molecule: IRE1α (endogenous, H460) (from UniProt O75460 19-977)

binding [2]: binds
B1: TUSC3-V5-His (wild type Tumor Suppressor Candidate 3) (protein, UniProt Q13454 42-348)
chain: QKKKENLLAEKVEQLMEWSSRRSIFRMNGDKFRKFIKAPPRNYSMIVMFTALQPQRQCSVCRQANEEYQILANSWRYSSAFCNKLFFSMVDYDEGTDVFQQLNMNSAPTFMHFPPKGRPKRADTFDLQRIGFAAEQLAKWIADRTDVHIRVFRPPNYSGTIALALLVSLVGGLLYLRRNNLEFIYNKTGWAMVSLCIVFAMTSGQMWNHIRGPPYAHKNPHNGQVSYIHGSSQAQFVAESHIILVLNAAITMGMVLLNEAATSKGDVGKRRIICLVGLGLVVFFFSFLLSIFRSKYHGYPYSDLDFE
